Data from paper PMC11249646 (ACS Pharmacology & Translational Science, 2024).

Assay: peptide made by a vendor
Settings: whole synthesis

Row | Substance | purity (crude or final not stated) [%]
1 | acetyl-LVLAMWKVGFFKRNRK-FITC | 95.83
2 | acetyl-RKLFVKVMFWRLNGAK-FITC | 95.37
